Measured values from publication PMC3713036.
These are yes or no findings as the source states them, for the method shown. Binding seen in cells or lysates may run through a third protein. Some results given as binding are weak or reduced against the parent protein; the word gives no strength.

How the values were obtained:
[1] = target: APE1 (endogenous) (human (endogenous in HCT116)) (UniProt P27695); experiment: co-IP; IP with mouse monoclonal anti-APE1 antibody and protein A/G Plus agarose beads from pre-cleared extracts of HCT116 p53-null cells, control or with ectopic p53 expression; Western for AP4
[2] = target: FLAG-tagged N-terminal 33 amino acid deleted (NΔ33) mutant APE1 (human) (UniProt P27695); experiment: co-IP; IP with anti-FLAG M2 antibody-conjugated agarose beads from extracts of HCT116 WT cells transfected with FLAG-tagged APE1 constructs; Western for p53 and FLAG; control or etoposide-treated cells (10 µM, 5 hours)
[3] = target: FLAG-tagged wild-type (WT) APE1 (human) (UniProt P27695); experiment: as above

With ectopic p53 (from UniProt P04637 1-393) the binding [1] was “binds”.

p53 (from UniProt P04637 1-393) was tested, and the binding [2] was “binds” and the binding [3] was “binds”.

B1: AP4 (protein, UniProt Q01664 1-338)
chain: MEYFMVPTQKVPSLQHFRKTEKEVIGGLCSLANIPLTPETQRDQERRIRREIANSNERRRMQSINAGFQSLKTLIPHTDGEKLSKAAILQQTAEYIFSLEQEKTRLLQQNTQLKRFIQELSGSSPKRRRAEDKDEGIGSPDIWEDEKAEDLRREMIELRQQLDKERSVRMMLEEQVRSLEAHMYPEKLKVIAQQVQLQQQQEQVRLLHQEKLEREQQQLRTQLLPPPAPTHHPTVIVPAPPPPPSHHINVVTMGPSSVINSVSTSRQNLDTIVQAIQHIEGTQEKQELEEEQRRAVIVKPVRSCPEAPTSDTASDSEASDSDAMDQSREEPSGDGELP
B1 was tested, and the binding [1] was “binds”.
